Six molecules from PMC7707522 can be followed below.

Chains of the proteins cited; added tags and fusions are not shown.
UniProt P03146: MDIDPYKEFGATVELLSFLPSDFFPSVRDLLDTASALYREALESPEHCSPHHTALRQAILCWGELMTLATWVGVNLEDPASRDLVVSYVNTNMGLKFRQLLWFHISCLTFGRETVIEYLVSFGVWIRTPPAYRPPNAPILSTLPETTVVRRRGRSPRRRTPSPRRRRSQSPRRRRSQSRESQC
UniProt O75190: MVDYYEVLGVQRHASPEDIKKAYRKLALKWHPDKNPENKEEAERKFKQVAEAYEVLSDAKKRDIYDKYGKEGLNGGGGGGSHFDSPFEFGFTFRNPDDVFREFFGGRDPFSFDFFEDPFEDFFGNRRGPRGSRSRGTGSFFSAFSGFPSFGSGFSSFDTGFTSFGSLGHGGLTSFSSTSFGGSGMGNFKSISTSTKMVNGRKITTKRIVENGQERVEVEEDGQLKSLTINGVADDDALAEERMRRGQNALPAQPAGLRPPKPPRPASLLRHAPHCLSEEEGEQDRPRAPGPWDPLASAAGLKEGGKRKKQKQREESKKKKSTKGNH
UniProt P38159: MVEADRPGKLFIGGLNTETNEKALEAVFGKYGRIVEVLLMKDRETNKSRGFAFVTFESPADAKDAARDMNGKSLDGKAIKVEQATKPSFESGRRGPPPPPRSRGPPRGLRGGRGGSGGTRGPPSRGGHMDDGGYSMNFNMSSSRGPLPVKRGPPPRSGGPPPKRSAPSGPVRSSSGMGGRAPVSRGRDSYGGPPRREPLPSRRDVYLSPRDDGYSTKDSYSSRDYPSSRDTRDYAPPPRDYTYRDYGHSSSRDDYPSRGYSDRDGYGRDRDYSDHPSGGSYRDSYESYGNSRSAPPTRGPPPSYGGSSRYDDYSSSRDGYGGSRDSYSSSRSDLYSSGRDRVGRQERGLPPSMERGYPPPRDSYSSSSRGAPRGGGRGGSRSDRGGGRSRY
UniProt P09874: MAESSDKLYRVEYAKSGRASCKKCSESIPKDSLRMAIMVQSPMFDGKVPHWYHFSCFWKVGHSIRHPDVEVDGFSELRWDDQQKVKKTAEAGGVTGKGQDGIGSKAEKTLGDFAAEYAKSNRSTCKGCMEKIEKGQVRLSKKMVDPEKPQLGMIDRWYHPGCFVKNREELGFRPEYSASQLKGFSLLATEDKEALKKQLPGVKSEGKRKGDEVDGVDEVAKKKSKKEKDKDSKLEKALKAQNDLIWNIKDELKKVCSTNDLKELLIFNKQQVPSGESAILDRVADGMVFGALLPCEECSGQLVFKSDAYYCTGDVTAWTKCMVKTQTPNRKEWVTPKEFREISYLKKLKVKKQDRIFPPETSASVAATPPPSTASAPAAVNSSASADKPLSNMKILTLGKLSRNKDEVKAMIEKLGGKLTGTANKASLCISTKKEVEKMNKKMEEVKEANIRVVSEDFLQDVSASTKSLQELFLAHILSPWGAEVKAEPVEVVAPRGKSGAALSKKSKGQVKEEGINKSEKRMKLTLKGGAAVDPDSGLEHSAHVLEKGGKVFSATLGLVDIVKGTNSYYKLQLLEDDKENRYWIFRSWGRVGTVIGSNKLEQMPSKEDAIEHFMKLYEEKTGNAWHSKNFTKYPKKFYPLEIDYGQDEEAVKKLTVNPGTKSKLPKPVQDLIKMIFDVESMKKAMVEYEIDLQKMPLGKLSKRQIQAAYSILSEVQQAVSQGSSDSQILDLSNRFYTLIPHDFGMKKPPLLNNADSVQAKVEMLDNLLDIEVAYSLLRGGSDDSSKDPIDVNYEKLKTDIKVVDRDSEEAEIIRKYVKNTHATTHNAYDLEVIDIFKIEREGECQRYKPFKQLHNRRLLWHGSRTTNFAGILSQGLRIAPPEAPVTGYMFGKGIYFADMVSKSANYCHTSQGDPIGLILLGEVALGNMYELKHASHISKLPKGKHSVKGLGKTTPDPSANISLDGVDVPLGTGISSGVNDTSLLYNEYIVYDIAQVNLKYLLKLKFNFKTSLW
UniProt Q92841: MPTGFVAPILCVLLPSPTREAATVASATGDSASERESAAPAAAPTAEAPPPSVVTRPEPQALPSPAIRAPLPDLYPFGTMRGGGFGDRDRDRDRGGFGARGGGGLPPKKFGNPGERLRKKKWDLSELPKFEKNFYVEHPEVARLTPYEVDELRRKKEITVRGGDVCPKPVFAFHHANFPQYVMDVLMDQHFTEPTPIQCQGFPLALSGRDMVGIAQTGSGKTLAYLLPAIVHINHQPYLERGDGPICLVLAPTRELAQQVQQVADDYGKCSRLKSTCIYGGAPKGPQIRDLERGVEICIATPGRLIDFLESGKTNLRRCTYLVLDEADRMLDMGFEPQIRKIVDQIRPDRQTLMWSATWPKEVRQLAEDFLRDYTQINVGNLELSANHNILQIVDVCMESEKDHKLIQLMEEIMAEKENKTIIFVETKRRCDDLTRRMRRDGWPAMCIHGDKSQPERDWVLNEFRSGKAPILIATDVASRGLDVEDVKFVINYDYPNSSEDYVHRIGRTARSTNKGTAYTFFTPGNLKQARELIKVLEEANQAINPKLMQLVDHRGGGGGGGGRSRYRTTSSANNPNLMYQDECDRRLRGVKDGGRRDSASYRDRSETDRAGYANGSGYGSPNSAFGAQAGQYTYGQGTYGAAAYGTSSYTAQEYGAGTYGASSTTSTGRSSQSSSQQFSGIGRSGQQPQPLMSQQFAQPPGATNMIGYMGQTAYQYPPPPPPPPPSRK

No constants are given. Whether binding was seen depends on the method and setting. In cells and extracts the contact can be indirect. Some results given as binding are weak or reduced against the parent protein; the word gives no strength.

This experiment has as its target HBV core protein (HBc) fused at its N-terminus to a streptavidin (ST)-binding peptide (Hepatitis B virus) (UniProt P03146). Kind of experiment: pull-down; Strep-Tactin purification of ST-HBc from Benzonase-treated nuclear extracts of dHepaRG-TR-ST-HBc cells; eluted proteins detected by western blot. A general note: Immunoblotting shows a protein as a band on a membrane.

As to DNAJB6 (from UniProt O75190 1-326), the binding entry is reported as “binds”. Under RBMX (from UniProt P38159 1-391) stands “binds”; under PARP1 (from UniProt P09874 1-1014), “binds”. The entry for DDX17 (from UniProt Q92841 1-729) is “binds”.

B1: SRSF2 (protein, UniProt Q01130 1-221)
chain: MSYGRPPPDVEGMTSLKVDNLTYRTSPDTLRRVFEKYGRVGDVYIPRDRYTKESRGFAFVRFHDKRDAEDAMDAMDGAVLDGRELRVQMARYGRPPDSHHSRRGPPPRRYGGGGYGRRSRSPRRRRRSRSRSRSRSRSRSRSRYSRSKSRSRTRSRSRSTSKSRSARRSKSKSSSVSRSRSRSRSRSRSRSPPPVSKRESKSRSRSKSPPKSPEEEGAVSS
Consider B1, for which the binding entry was “binds”.

B2: TRA2B (protein, UniProt P62995 1-288)
chain: MSDSGEQNYGERESRSASRSGSAHGSGKSARHTPARSRSKEDSRRSRSKSRSRSESRSRSRRSSRRHYTRSRSRSRSHRRSRSRSYSRDYRRRHSHSHSPMSTRRRHVGNRANPDPNCCLGVFGLSLYTTERDLREVFSKYGPIADVSIVYDQQSRRSRGFAFVYFENVDDAKEAKERANGMELDGRRIRVDFSITKRPHTPTPGIYMGRPTYGSSRRRDYYDRGYDRGYDDRDYYSRSYRGGGGGGGGWRAAQDRDQIYRRRSPSPYYSRGGYRSRSRSRSYSPRRY
B2: the binding result is listed as “binds”.
